Data on one substance can be found in paper PMC10121471.

Chains of the proteins cited; added tags and fusions are not shown.
UniProt Q15910: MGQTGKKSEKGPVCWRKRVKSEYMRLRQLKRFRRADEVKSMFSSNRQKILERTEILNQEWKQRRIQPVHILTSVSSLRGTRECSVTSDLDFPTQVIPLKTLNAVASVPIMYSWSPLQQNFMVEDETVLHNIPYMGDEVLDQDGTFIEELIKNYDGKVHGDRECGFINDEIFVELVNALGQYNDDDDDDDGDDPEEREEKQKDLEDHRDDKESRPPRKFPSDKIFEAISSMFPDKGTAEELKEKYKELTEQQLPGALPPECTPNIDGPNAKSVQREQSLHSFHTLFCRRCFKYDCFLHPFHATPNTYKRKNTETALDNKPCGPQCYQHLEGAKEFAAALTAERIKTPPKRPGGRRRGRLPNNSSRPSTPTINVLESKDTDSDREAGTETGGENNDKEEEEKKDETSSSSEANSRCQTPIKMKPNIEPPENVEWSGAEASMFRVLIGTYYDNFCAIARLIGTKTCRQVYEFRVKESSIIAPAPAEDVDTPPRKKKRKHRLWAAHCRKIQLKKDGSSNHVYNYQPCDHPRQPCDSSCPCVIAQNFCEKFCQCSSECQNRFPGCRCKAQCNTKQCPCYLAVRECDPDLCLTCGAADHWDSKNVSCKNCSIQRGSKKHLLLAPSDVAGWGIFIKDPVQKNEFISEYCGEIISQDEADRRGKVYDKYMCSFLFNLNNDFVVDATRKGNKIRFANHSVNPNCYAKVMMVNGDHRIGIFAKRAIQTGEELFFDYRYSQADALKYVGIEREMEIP
UniProt Q5T4S7: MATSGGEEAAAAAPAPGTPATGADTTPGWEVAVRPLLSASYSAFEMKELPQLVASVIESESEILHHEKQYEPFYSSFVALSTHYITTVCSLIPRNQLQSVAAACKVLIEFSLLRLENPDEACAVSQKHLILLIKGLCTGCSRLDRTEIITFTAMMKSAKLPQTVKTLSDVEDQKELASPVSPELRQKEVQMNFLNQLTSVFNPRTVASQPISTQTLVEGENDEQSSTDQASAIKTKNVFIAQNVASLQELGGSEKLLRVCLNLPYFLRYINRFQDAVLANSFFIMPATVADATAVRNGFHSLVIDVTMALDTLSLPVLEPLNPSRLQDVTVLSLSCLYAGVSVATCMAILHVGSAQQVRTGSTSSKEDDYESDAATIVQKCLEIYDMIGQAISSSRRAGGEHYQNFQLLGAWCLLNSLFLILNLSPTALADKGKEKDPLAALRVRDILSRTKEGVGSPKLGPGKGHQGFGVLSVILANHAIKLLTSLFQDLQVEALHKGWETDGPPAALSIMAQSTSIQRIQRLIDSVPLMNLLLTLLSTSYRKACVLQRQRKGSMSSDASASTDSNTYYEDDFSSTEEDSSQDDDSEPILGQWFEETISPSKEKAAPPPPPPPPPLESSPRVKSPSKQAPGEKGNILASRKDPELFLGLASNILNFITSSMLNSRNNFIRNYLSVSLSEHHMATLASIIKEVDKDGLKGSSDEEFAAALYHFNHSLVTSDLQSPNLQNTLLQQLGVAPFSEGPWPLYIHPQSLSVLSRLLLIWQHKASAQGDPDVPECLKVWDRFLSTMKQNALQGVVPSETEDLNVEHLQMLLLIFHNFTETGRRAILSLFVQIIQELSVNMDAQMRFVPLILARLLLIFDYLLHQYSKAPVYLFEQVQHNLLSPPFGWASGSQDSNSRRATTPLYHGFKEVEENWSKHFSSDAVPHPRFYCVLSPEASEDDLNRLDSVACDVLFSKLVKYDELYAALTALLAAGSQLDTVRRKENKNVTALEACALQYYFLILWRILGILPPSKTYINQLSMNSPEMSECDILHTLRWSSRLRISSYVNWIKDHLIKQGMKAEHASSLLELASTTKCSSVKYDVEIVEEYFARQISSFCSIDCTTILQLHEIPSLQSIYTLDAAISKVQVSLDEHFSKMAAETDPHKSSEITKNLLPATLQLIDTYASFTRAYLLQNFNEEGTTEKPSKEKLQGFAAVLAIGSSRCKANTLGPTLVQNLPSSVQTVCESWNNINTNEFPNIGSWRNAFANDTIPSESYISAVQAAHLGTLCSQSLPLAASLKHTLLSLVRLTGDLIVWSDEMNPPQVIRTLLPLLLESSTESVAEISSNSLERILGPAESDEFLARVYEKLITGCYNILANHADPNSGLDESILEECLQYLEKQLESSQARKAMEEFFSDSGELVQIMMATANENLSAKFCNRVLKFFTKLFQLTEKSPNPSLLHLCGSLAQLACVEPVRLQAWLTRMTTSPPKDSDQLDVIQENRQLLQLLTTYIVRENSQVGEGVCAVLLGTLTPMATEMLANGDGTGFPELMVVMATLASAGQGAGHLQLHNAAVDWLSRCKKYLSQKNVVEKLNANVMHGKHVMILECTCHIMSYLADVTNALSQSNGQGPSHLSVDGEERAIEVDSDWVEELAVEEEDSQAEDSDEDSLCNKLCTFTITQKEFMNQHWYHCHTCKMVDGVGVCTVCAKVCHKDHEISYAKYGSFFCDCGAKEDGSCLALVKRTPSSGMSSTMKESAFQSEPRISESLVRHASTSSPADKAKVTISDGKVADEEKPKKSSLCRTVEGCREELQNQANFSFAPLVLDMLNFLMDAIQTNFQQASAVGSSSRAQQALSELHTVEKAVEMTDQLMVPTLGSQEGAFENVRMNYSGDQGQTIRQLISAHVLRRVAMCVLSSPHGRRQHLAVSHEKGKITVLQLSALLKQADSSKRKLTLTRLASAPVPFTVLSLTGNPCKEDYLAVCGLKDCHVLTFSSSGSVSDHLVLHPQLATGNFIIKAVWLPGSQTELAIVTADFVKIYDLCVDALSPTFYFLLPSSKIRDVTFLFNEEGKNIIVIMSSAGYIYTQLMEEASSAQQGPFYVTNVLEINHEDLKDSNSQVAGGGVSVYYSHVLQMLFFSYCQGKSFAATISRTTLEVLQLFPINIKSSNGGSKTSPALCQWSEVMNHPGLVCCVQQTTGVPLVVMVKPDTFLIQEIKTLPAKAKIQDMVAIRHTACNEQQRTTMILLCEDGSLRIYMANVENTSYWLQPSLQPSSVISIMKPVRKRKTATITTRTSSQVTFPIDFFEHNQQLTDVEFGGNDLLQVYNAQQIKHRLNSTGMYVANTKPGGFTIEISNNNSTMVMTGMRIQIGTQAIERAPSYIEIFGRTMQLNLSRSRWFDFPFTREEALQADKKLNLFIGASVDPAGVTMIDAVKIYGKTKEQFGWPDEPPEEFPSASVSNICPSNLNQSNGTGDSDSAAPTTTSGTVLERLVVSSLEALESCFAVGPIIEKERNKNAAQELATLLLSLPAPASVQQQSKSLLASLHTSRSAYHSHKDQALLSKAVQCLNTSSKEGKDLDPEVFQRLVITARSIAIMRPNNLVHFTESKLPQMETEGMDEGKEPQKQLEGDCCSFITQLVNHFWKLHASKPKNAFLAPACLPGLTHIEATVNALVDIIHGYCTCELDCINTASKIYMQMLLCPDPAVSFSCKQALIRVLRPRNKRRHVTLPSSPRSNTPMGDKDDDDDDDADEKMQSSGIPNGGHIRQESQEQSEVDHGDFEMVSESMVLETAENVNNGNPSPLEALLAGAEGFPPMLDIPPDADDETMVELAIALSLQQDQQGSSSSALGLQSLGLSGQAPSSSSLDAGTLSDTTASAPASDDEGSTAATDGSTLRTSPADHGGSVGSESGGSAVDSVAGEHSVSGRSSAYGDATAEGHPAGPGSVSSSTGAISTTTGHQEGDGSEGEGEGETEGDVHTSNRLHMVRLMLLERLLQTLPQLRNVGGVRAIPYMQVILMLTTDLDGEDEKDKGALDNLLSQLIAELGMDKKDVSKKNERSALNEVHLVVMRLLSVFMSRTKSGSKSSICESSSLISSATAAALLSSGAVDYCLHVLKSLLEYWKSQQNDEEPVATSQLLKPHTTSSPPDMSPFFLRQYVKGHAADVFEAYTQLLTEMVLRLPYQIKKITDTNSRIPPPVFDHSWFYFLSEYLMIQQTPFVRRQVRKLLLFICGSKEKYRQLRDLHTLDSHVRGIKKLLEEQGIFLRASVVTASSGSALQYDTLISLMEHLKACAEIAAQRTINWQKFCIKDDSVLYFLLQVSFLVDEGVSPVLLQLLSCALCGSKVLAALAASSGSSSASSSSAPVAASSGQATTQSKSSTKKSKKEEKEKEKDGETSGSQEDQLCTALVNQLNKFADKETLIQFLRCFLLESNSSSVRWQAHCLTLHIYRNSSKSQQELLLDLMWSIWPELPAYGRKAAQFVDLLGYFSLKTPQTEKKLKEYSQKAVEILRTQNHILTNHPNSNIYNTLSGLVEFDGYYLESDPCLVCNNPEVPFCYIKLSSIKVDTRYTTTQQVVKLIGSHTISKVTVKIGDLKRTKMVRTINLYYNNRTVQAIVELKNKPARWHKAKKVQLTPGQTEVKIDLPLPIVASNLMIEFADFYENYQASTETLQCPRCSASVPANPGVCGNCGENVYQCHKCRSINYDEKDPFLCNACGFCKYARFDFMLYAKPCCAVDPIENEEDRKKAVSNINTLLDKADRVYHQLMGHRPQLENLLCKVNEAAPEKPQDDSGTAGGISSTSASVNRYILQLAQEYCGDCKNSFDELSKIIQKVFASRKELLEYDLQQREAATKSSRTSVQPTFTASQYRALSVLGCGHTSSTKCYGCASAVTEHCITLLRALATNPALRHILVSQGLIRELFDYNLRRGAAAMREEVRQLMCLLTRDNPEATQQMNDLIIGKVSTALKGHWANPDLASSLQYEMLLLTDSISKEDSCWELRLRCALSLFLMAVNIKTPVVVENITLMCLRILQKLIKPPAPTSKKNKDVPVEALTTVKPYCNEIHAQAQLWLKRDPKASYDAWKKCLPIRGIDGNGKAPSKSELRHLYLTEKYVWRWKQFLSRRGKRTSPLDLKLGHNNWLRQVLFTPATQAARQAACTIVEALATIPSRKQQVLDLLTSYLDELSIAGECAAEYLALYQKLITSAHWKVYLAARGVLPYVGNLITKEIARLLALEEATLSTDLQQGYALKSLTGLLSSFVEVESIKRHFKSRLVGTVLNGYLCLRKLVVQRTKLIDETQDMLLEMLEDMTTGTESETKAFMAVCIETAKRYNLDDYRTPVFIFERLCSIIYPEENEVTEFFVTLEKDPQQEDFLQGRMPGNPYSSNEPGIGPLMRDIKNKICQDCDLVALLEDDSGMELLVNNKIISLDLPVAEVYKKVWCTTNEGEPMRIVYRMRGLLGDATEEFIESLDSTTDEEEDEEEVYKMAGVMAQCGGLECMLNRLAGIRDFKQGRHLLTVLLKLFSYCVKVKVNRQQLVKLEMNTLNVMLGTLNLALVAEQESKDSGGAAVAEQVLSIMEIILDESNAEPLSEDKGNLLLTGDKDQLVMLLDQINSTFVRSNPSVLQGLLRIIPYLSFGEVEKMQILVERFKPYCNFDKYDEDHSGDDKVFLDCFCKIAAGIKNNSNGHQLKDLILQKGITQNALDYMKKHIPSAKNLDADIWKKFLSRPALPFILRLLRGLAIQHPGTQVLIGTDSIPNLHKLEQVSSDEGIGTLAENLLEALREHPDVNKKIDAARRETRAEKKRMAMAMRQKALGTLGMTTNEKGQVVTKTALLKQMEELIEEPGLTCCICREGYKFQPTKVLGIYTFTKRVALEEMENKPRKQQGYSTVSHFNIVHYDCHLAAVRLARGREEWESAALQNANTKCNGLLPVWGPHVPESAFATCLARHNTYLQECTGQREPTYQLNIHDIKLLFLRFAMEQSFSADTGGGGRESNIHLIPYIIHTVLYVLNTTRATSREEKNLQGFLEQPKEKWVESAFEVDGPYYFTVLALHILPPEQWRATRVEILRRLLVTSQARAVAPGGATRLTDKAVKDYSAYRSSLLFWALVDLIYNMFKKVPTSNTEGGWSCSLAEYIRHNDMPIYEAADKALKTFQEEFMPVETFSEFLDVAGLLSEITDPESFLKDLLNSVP

Results are given in words; binding and its absence hold for the method and conditions named. Binding seen in cells or lysates may run through a third protein. These calls come from enrichment with a bait or labelling near it, and not all partners need be listed.

The assay has as its target EZH2 (enhancer of zeste homolog 2), endogenous in human melanoma cell lines (human (endogenous in A375, 28:B4:F3, LM-MEL45, IGR37)) (UniProt Q15910). The assay is described as follows: affinity purification with mass spectrometry; EZH2 co-immunoprecipitates from lysates of melanoma cell lines analysed by LC-MS; n = 3 biological replicates.

On to “UBR4, endogenous in human melanoma cell lines (from UniProt Q5T4S7 1-5183) (enzyme)”, for which the binding entry is recorded as “binds”.
